# Reference: PubChem BioAssay AID1688 (National Center for Advancing Translational Sciences (NCATS), 2009)
# Hit rate of the full screen: of about 220,000 compounds, about 2,400 (1.1%) were called active. The inconclusive results got no clear call from the source; some entries with a clear call stand among them for comparison. Calls come from the whole dose curve; as a rule, active = well fitted inhibition curve with a large enough effect; inconclusive = small, poorly fitted or top-dose-only effect, or effect the other way; inactive = no such curve, though single readings can be large or run the other way. Where the call is inconclusive, the potency comes from a doubtful curve fit.
# Assay: qHTS Multiplex Assay to Identify Dual Action Probes in a Cell Model of Huntington: Aggregate Formation (GFP); note: nearly all actives have a fitted effect of over 60% in size
# Conditions: PC12 HttQ103-GFP aggregates, Acumen cytometry, 40 h; activity change, negative = inhibition: at 46.1 µM (top of the series) unless noted
# How it was run: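 Quantitative HTS on tebufenozide-induced (100 nM) PC12 cells stably expressing polyQ103 Huntingtin exon 1–GFP. Reduction of bright GFP aggregates, detected by laser scanning cytometry after lysis, identified actives across the titration.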
# % is set by controls: 0 for no effect and ±100 for the full control effect; potency is the fitted concentration of half-maximal effect.
Structure (SMILES),Potency,"activity change, negative = inhibition"
COc1ccc(-n2cnc(N)c2C(=O)c2cccc([N+](=O)[O-])c2)cc1,active: 8.91 µM,
Cc1ccccc1NC(=O)c1nc[nH]c1C(=O)NCc1ccccc1,"inconclusive: 35.5 µM [inhibitor, single point]",
Oc1nc(Nc2ccc(Cl)cc2Cl)sc1/C=C1\C=Nc2ccccc21,"inconclusive: 1.12 µM [inhibitor, single point]",
O=c1ccc(S(=O)(=O)N2CCC(Cc3ccccc3)CC2)c[nH]1,"inconclusive: 2.82 µM [inhibitor, partial curve]",
Cc1ccc(S(=O)(=O)Cn2nnnc2C(C(C)C)N2CCc3ccccc3C2)cc1 (stereo not given),inactive,
O=C(NCc1ccco1)N1c2ccccc2Sc2ccccc21,"inconclusive: 35.5 µM [inhibitor, single point]",
CC(CCc1ccccc1)NC(=O)C1CCN(S(=O)(=O)N2CCOCC2)CC1 (stereo not given),"inconclusive: 2.51 µM [activator, single point]",
Cc1sc(NC(=O)c2ccco2)c(CN2CCN(Cc3ccccc3)CC2)c1C,"inconclusive: 15.8 µM [inhibitor, single point]",
COCCOC(=O)c1[nH]c2c(c1C)C(=O)CC(c1ccco1)C2 (stereo not given),inactive,
CC(=O)C1=C(NC(=O)c2ccc(C(F)(F)F)cc2)C[C@@H]2[C@H]1C2(C)C,"inconclusive: 1.78 µM [activator, partial curve, poor fit]",
Cc1cc(=O)oc2c(C(=O)/C=C\c3cccs3)c(O)ccc12,"inconclusive: 35.5 µM [inhibitor, single point]",
CCc1cccc(CC)c1NC(=O)C1SC(=Nc2ccccc2C)C(c2nc3ccccc3s2)=C1N (stereo not given),"inconclusive: 20 µM [inhibitor, single point]",
Cc1nc2ccccn2c1C(=O)N/N=C/c1cc(C)n(-c2ccc(Br)cc2)c1C,inactive,
c1ccc(C2=Nn3c(nnc3-c3ccncc3)SC2)cc1,active: 10 µM,
Cc1cccc(-n2ncc3c(NC(C)C)ncnc32)c1,active: 11.2 µM,
Nc1c2ccccc2nc2ccccc12,"inconclusive: 35.5 µM [inhibitor, single point]",
O=C(c1cc2ccccc2oc1=O)N(c1ccccc1)C1C=CS(=O)(=O)C1 (stereo not given),inactive,
COC(=O)c1cc(C(=O)OC)cc(N2C(=O)CC(NNC(=O)c3ccccc3Cl)C2=O)c1 (stereo not given),inactive,
CN1CCC(=C2c3ccccc3Sc3ccccc32)CC1,"inconclusive: 25.1 µM [inhibitor, partial curve, poor fit]",
Cc1nc(N2CCN(C(=O)c3ccco3)CC2)c2c3c(sc2n1)CCCC3,inactive,
OCCNc1c2ccccc2nc2c(F)c(F)c(F)c(F)c12,"inconclusive: 35.5 µM [inhibitor, single point]",
CC(=O)Oc1ccc2c(c1)c(C(C)=O)c(C)n2C,"inconclusive: 35.5 µM [inhibitor, single point]",
CCCCCCCCn1c(=O)c(C(=O)OCC)c(O)c2ccccc21,"inconclusive: 35.5 µM [inhibitor, single point]",

Structure (SMILES),Potency,"activity change, negative = inhibition"
COC(=O)c1c(NC(=O)COC(=O)c2ccc(O)cc2)sc2c1CCCCC2,"inconclusive: 15.8 µM [inhibitor, single point]",
Cc1c(C(=O)NCc2ccc3c(c2)OCO3)sc2nc(-c3ccccc3)cn12,inactive,
O=C(NCc1ccco1)C1CCN(C(=O)c2cc3sccc3n2Cc2ccc(F)cc2)CC1,"inconclusive: 12.6 µM [inhibitor, single point]",
CC(C)c1ccc(NC(=O)N(CCc2nc3ccccc3[nH]2)C2CCCC2)cc1,"inconclusive: 25.1 µM [inhibitor, single point]",
CCOc1ccccc1N1CCN(C(=O)CCCN2C(=O)c3cccc4cccc(c34)C2=O)CC1,active: 20 µM,
COC(=O)c1c(NC(=O)CC2SC(N)=NC2=O)sc2c1CCCC2 (stereo not given),"inconclusive: 2.82 µM [inhibitor, single point]",
CN1C(=O)C(CC(=O)O)S/C1=N\N=C\c1ccc(O)cc1O (stereo not given),,inactive: 12.4% [at 9.22 µM]
O=C(Nc1ccc(Cc2ccncc2)cc1)c1ccc(S(=O)(=O)N2CCCC2)cc1,active: 11.2 µM,
O=C(NC1CCCC1)C(c1ccncc1)N(Cc1ccccc1)C(=O)c1ccc(-c2ccccc2)[nH]1 (stereo not given),"inconclusive: 35.5 µM [inhibitor, single point]",
CCCNC(=O)C1CC(c2ccc(C(F)(F)F)cc2)=NO1 (stereo not given),"inconclusive: 0.0891 µM [activator, full curve, poor fit]",
CCCC(C)C(=O)Nc1nc(C)c(-c2csc(Nc3cc(OC)ccc3OC)n2)s1 (stereo not given),"inconclusive: 0.562 µM [inhibitor, full curve, poor fit]",
Cc1ccccc1-c1nc(P(=O)(c2ccccc2)c2ccccc2)c(N2CCOCC2)o1,,inactive: -6.27% [at 9.22 µM]
Cc1nc(CNC(=O)CC2C(=O)NCCN2Cc2ccoc2)nc2c1CCCC2 (stereo not given),,inactive: -24.7% [at 9.22 µM]
CCC(C)NC(=O)c1ccccc1NS(=O)(=O)c1ccc(OC)c(OC)c1 (stereo not given),inactive,
CCOC(=O)Cn1cnc2c(cnn2-c2ccc(Cl)cc2)c1=O,active: 15.8 µM,
CCSc1nnnn1-c1ccccc1,inactive,
O=C(C1CCC1)N1CCc2cc(S(=O)(=O)NC3CCCC3)ccc21,"inconclusive: 35.5 µM [inhibitor, single point]",
COc1cccc(C(=O)N/N=C(/c2ccccc2)c2ccccn2)c1,"inconclusive: 4.47 µM [inhibitor, full curve]",
CC1=NN(c2ccc(Cl)cc2)C(=O)C1,"inconclusive: 35.5 µM [inhibitor, single point]",
Cn1c(SCc2ccccc2)nc2ccsc2c1=O,"inconclusive: 22.4 µM [inhibitor, single point]",
CCOC(=O)c1c(NC(=O)CN2C(=O)NC3(CCC(C)CC3)C2=O)sc(C)c1-c1ccc(C)cc1 (stereo not given),"inconclusive: 35.5 µM [activator, single point]",
CC1CCN(C2CC(=O)N(c3ccccc3)C2=O)CC1 (stereo not given),,inactive: 2.86% [at 9.22 µM]

# 8 entries from above, sorted by formula weight, largest number first:
Structure (SMILES),Potency,"activity change, negative = inhibition"
CCOc1ccccc1N1CCN(C(=O)CCCN2C(=O)c3cccc4cccc(c34)C2=O)CC1,active: 20 µM,
Cc1ccccc1-c1nc(P(=O)(c2ccccc2)c2ccccc2)c(N2CCOCC2)o1,,inactive: -6.27% [at 9.22 µM]
O=C(Nc1ccc(Cc2ccncc2)cc1)c1ccc(S(=O)(=O)N2CCCC2)cc1,active: 11.2 µM,
COC(=O)c1c(NC(=O)COC(=O)c2ccc(O)cc2)sc2c1CCCCC2,"inconclusive: 15.8 µM [inhibitor, single point]",
COC(=O)c1c(NC(=O)CC2SC(N)=NC2=O)sc2c1CCCC2 (stereo not given),"inconclusive: 2.82 µM [inhibitor, single point]",
CN1C(=O)C(CC(=O)O)S/C1=N\N=C\c1ccc(O)cc1O (stereo not given),,inactive: 12.4% [at 9.22 µM]
CC1CCN(C2CC(=O)N(c3ccccc3)C2=O)CC1 (stereo not given),,inactive: 2.86% [at 9.22 µM]
CC1=NN(c2ccc(Cl)cc2)C(=O)C1,"inconclusive: 35.5 µM [inhibitor, single point]",
